From PubChem BioAssay AID1347426 (Functional Genomics Laboratory (NCATS/FGL), 2020)
Hit rate of the full screen: of about 31,000 sequences, about 1,400 (4.5%) were called active.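 Rule for the calls: active = median seed-adjusted z-score above 1 or below -1; inactive = the rest.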 The list shows a part of the results.

Experiment: Novel Modifiers of Survival Motor Neuron (SMN) Protein: Gene Identification via Genome-wide siRNA Screen;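 note: luminescence tracks full-length SMN protein made from the SMN2 reporter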
Conditions: HEK293T SMN2-luciferase reporter, siRNA knockdown, 72 h; actives lie on both sides
Summary of the method: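 siRNA screen, 10418 genes ×3 siRNAs; 1 pmol/well, lipid reverse transfection into HEK293T SMN2-luc reporter line. 72 h, 37 °C, 5% CO2; ONE-Glo readout. Data: neg-ctrl normalized, log10, MAD; hit = MAD >1.0 or < -1.0.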

Row | Sequence | median seed-adjusted z-score
1 | GAACUUCAGAGGACGAGGATT against HNRNPU | inactive: 0.431
2 | CAGCAGCAGUAUGCCUAUATT against OVOL2 | inactive: 0.654
3 | GGAUUUUCUAGUUACCUGUTT against RG9MTD3 | inactive: -0.174
4 | GCACGUACACCUUCUUAGATT against NDUFV3 | inactive: -0.086
5 | CUGCAUACAUCACAAAGAATT against SENP8 | inactive: 0
6 | GGCUUAUCUUGACCACAAUTT against TLR10 | inactive: -0.363
7 | ACAACGUGGUGUAUAAGCATT against GDF5 | inactive: -0.0507
8 | UGGUGUCAGUGGAUCGCUATT against GPR101 | inactive: -0.265
9 | CAUCCACUCUGGAACCGCUTT against ELA3A | inactive: -0.0465
10 | CAAGGGUUUUCUUACAAUATT against GNA13 | inactive: 0
11 | CGCUGAUGCUGGUCUUCAUTT against MC2R | inactive: 0
12 | AGUCCAGCCUUAUCAAUCATT against ZNF773 | inactive: 0.345
13 | GGAACAGAGAAGCAUCUAATT against DDX3Y | inactive: -0.149
14 | CGGAUUUGUUGCUAAAUGATT against PCDHB8 | active: 1.15
15 | CGCCUUAUACUUUACCAAATT against MGC16703 | inactive: 0.55
16 | CCAAGUCGAUGGAACAGUUTT against RASAL1 | inactive: -0.089
17 | CAAGUUAUCCUGACCCUAUTT against TNFSF10 | inactive: 0
18 | CGGCAGCUGAGAUUCGAAATT against CASP14 | inactive: 0.702
19 | CACUUAACUUUGUUGCGAATT against RNASEN | inactive: 0.524
20 | CGAUAAAGACGGAUUCUAATT against MATK | inactive: -0.754
21 | GCUGGGCCUUCAUCAAGUATT against GPR108 | inactive: 0.369
22 | GAAGGAUAUCAAAUCAAUUTT against TCF4 | inactive: 0.107

Row | Sequence | median seed-adjusted z-score
23 | CGCUGGUCUUUUGACGGCATT against RAB40B | inactive: -0.31
24 | AGGUUUUCAUAGACAAGCATT against CUGBP1 | inactive: 0.086
25 | CCCUGAUCCUAUAGCUAUUTT against ART4 | inactive: -0.0808
26 | GACAGAUUUUAUACGUUUATT against MTF2 | inactive: 0
27 | CGAGCAAGGUUAUGAACCATT against AFM | inactive: 0
28 | CCCAAGGAGUUAAUCCUAATT against C1D | inactive: 0.021
29 | GGACGACAAAAGAGUUGUATT against RAB10 | inactive: -0.319
30 | CUACAGAAAUACUAGAGGATT against TRIM74 | inactive: 0.0932
31 | ACGUGAUCGCGUCAGGACATT against ARL8A | inactive: -0.0844
32 | GGACAUCUCUUAGCCCAUATT against NFATC3 | inactive: -0.517
33 | CCCUAGCACCCAUUACUUUTT against ETFA | inactive: -0.0619
34 | GCACUAAAGCAAUCUUCAATT against CYP26A1 | inactive: 0.0569
35 | AGUCCUCUAUCAACCUCUUTT against RXFP3 | inactive: -0.0651
36 | GGAGUGAUAUCUUCCACUATT against SLC25A14 | inactive: 0.281
37 | GCCCGAAUGUUCGCUGAAATT against RAB25 | inactive: -0.04
38 | CCUGAUUUCCAUUCAGAAATT against ETV4 | inactive: -0.186
39 | CAACCUAUACUAACCUGAATT against TUBA1A | inactive: 0.284
40 | CGACGGUUCUUCAUCCUUUTT against MPRIP | inactive: 0.238
41 | CGUUCUCAGAGCUACCCUUTT against NRIP2 | inactive: 0.415
42 | GGACCCUAAUCAAACGAAUTT against PDE8A | inactive: 0.302
43 | CCAAUGAGGUAAAAACGGATT against MLL3 | inactive: -0.248
44 | AGCAGGAGUUUGACAAGAATT against GPKOW | inactive: -0.239

Row | Sequence | median seed-adjusted z-score
45 | ACAAAUCUCGCUGACCAUATT against MEIS2 | inactive: 0.475
46 | GGAUGUCCACCACAGUAAATT against KL | inactive: -0.267
47 | GCAAGUACCCAGUACGAGATT against NFASC | inactive: 0.594
48 | UGAGGAGUUUUACCAGAAATT against HS1BP3 | inactive: 0.418
49 | GCUUGUAGGUGAUACACCUTT against ROCK1 | inactive: -0.306
50 | CAGUGAACCACAAACAGUUTT against SCN2B | inactive: -0.65
51 | AGGCAUCUGUACUUAAGAATT against ZFP57 | inactive: -0.267
52 | AGACUUUCCAGCAUCCAUATT against KREMEN1 | inactive: 0
53 | CCAGUAAUAUAGUAGUAAATT against MAPK8 | inactive: 0.316
54 | CGUGUUUGCUAUGAUUAAATT against GP5 | inactive: -0.286
55 | ACAAUCAACUAAGCCCUUUTT against MS4A7 | inactive: 0.0794
56 | CCAACUUAACCAACAUAGATT against SENP5 | inactive: 0.215
57 | UCUUCUACCUCAACAUGUATT against GPR17 | inactive: -0.309
58 | GAUUGAAACUGACAAGACATT against DLST | active: 1.16
59 | CAAUAGCUGAAAUAAUAGATT against KPNA3 | inactive: 0.383
60 | GAACUCUACGGGAAUUUCATT against CA11 | inactive: -0.0741
61 | CUGUCCUCUCUAAACAGUATT against MRGPRX4 | inactive: -0.113
62 | GCAUCGCAGAAGUUGCUAATT against PAPSS1 | inactive: -0.648
63 | ACAAGAGUAUGUUAUUUAATT against NDUFB1 | inactive: 0
64 | CUUUCUGAGUUAUCAUAUATT against NOX3 | inactive: 0.04
65 | AGACAUUGUUGUUCUUGGUTT against PSMA7 | inactive: 0.0726
66 | GGAAAAGAUUGAUGCGGUATT against MMP2 | inactive: 0.0467

Row | Sequence | median seed-adjusted z-score
67 | UCUUCUACACCAAUAUCUATT against GPR4 | inactive: 0.563
68 | GGCGUAGGUCUGUUCGAUATT against UBR2 | inactive: 0.632
69 | AGAUGGAGUUGGUCCAGCATT against ADC | inactive: -0.157
70 | CAAUAGCCACGUGAACCCUTT against COX6A2 | inactive: 0.714
71 | GUAGGGUCCCUUAUUGUUATT against PCDHB9 | inactive: 0.516
72 | GAACUGGACGGACAACUAUTT against OGFR | inactive: -0.565
73 | GAAAGAUGGUGUUGACUUUTT against ALDOB | active: -1.34
74 | GUGAGUACUUUACUAGAUATT against ADAM30 | inactive: 0.0576
75 | GAAUUACUCUGCCUCUAAATT against TAF7 | inactive: -0.593
76 | GACGAAAAGAUGAACAUUATT against ARFGAP3 | inactive: 0.00412
77 | ACACCAGGAUGAACGAGGATT against PAK4 | inactive: -0.742
78 | GCACAUGAGAUCUUCGAAATT against SUPV3L1 | inactive: -0.169
79 | GAAACACGUCAGUCCUAAUTT against LHX8 | inactive: 0
80 | GUCACUAGCUUAUCUUGAATT against VEGFA | inactive: 0.495
81 | GAGUGUAUCCUGUUUAUUATT against PPP2R4 | inactive: 0.318
82 | GGCCAUGAACCGCAUCUGUTT against GUK1 | inactive: -0.339
83 | CCUUCAAGCUGCAGACUAATT against THBS4 | inactive: -0.28
84 | GGCCUUUGCUGAGCAGAUATT against ADCK5 | inactive: 0.958
85 | UCCUGUUCCUAGUCAUUUATT against GNGT2 | inactive: -0.289
86 | CCAGUUUGAUUUCAAUAAATT against CENPB | inactive: 0.292
87 | ACAGCGUGGUGUCUCCUCATT against PMM1 | inactive: -0.597
88 | GCAUAGUAAUGUUCGUCAUTT against SLC12A2 | inactive: -0.4

Part of the list above in another layout:

| Row | Sequence | median seed-adjusted z-score |
| --- | --- | --- |
| 2 | CAGCAGCAGUAUGCCUAUATT against OVOL2 | inactive: 0.654 |
| 7 | ACAACGUGGUGUAUAAGCATT against GDF5 | inactive: -0.0507 |
| 9 | CAUCCACUCUGGAACCGCUTT against ELA3A | inactive: -0.0465 |
| 12 | AGUCCAGCCUUAUCAAUCATT against ZNF773 | inactive: 0.345 |
| 14 | CGGAUUUGUUGCUAAAUGATT against PCDHB8 | active: 1.15 |
| 18 | CGGCAGCUGAGAUUCGAAATT against CASP14 | inactive: 0.702 |
| 19 | CACUUAACUUUGUUGCGAATT against RNASEN | inactive: 0.524 |
| 25 | CCCUGAUCCUAUAGCUAUUTT against ART4 | inactive: -0.0808 |
| 27 | CGAGCAAGGUUAUGAACCATT against AFM | inactive: 0 |
| 28 | CCCAAGGAGUUAAUCCUAATT against C1D | inactive: 0.021 |
| 40 | CGACGGUUCUUCAUCCUUUTT against MPRIP | inactive: 0.238 |
| 41 | CGUUCUCAGAGCUACCCUUTT against NRIP2 | inactive: 0.415 |
| 47 | GCAAGUACCCAGUACGAGATT against NFASC | inactive: 0.594 |
| 52 | AGACUUUCCAGCAUCCAUATT against KREMEN1 | inactive: 0 |
| 54 | CGUGUUUGCUAUGAUUAAATT against GP5 | inactive: -0.286 |
| 56 | CCAACUUAACCAACAUAGATT against SENP5 | inactive: 0.215 |
| 58 | GAUUGAAACUGACAAGACATT against DLST | active: 1.16 |
| 59 | CAAUAGCUGAAAUAAUAGATT against KPNA3 | inactive: 0.383 |
| 61 | CUGUCCUCUCUAAACAGUATT against MRGPRX4 | inactive: -0.113 |
| 65 | AGACAUUGUUGUUCUUGGUTT against PSMA7 | inactive: 0.0726 |
| 76 | GACGAAAAGAUGAACAUUATT against ARFGAP3 | inactive: 0.00412 |
| 78 | GCACAUGAGAUCUUCGAAATT against SUPV3L1 | inactive: -0.169 |

The results go on:

Row | Sequence | median seed-adjusted z-score
89 | GGCUUGUGCUAAUCAGAGATT against AK5 | inactive: -0.0461
90 | GGUGAACUUCUACAACAAUTT against DPEP1 | inactive: -0.886
91 | CCAGCAAAGAGGUCUAUCATT against GCNT3 | inactive: 0
92 | GCAGAACCGUGAAAAAGGATT against DERA | inactive: -0.197
93 | GAAGAAAACGAAAUGAUCATT against MLN | inactive: -0.422
94 | CAGACAUACUCCAUAGAUATT against RHEB | inactive: -0.387
95 | CCCUUAGUCAGUUCCCAGATT against KCNA10 | inactive: 0.00887
96 | ACAGAAAGCCUGAGCUUGATT against SLC7A5 | inactive: 0.00397
97 | GCCCAUUGGUUUCCGAGAATT against CMYA5 | inactive: -0.858
98 | GGACAGCUUUUGAUUUAUUTT against INTS6 | inactive: -0.0163
99 | GGAGGACUAGGCUCCAUUATT against ARPC5L | inactive: -0.36
100 | GGAAUUACGGAGAUAUAGATT against TRRAP | active: -1.25
101 | AGAUGAUCUUGUUUCAUCUTT against NRXN3 | inactive: 0.897
102 | GUAUCGGAACAGUACAACATT against ABCA5 | inactive: -0.376
103 | CCAUGAUCAUGGACUCCAUTT against FAM62A | inactive: -0.34
104 | AUAUUAACCUGGUACAUGATT against ATP5L | inactive: -0.295
105 | GGGCAAUGAUAGAAAGAAUTT against STK35 | inactive: 0.519
106 | CAACUACAGUUUCUCAACATT against EYA3 | inactive: -0.0191
107 | GGACUACACGUACUUCUCATT against KIRREL3 | inactive: -0.206
108 | CGACAGGAGUGGUUCUAGATT against ACTR1B | inactive: -0.18
